PubChem BioAssay AID1904 | GNF – 2009
Assay: 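Novel clock parts and modifiers of the cell-autonomous circadian rhythm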 (follow-up of hits). Cells: human U2OS osteosarcoma cells stably expressing a destabilised luciferase driven by the Bmal1 promoter. Knock-down reagent: siRNA pair against human genes, 12.5 nM (two siRNAs, 0.5 pmol each, per well). Duration: about 3 days after transfection, then luminescence recorded for about 4 days. Read-out: 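Period and amplitude fitted from detrended luminescence traces taken every 2 hours; duplicate wells averaged, compared with the screen mean and grouped into phenotype classes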. Call rule: 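Active when retesting with individual siRNAs reproduced the period or amplitude change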. Calls: active = confirmed by single siRNAs; inactive = not confirmed.
Only reagents picked out of a larger screen are listed. 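Lists only primary-screen hits; phenotype classes come from fitted traces, and the underlying luminescence values are not given.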 Reagents against one gene are numbered here.

no.	Target gene	reagent no.	clock phenotype class	confirmed with single siRNAs	Outcome
1	HSPC148	1	longer clock period; seen with two independent siRNA pairs for the gene	phenotype reproduced by individual siRNAs	active
2	HSPC148	2	longer clock period; seen with two independent siRNA pairs for the gene	phenotype reproduced by individual siRNAs	active
3	DDX3X	1	longer clock period; seen with two independent siRNA pairs for the gene	phenotype reproduced by individual siRNAs	active
4	TH	1	longer clock period; seen with two independent siRNA pairs for the gene	phenotype reproduced by individual siRNAs	active
5	TH	2	longer clock period; seen with two independent siRNA pairs for the gene	phenotype reproduced by individual siRNAs	active
6	IGSF4C	1	longer clock period; seen with two independent siRNA pairs for the gene	phenotype reproduced by individual siRNAs	active
7	IGSF4C	2	longer clock period; seen with two independent siRNA pairs for the gene	phenotype reproduced by individual siRNAs	active
8	CKAP1	1	shorter clock period; seen with one siRNA pair in duplicate wells	phenotype reproduced by individual siRNAs	active
9	CKAP1	2	shorter clock period; seen with one siRNA pair in duplicate wells	phenotype reproduced by individual siRNAs	active
10	PRKCI	1	longer clock period; seen with two independent siRNA pairs for the gene	phenotype reproduced by individual siRNAs	active
11	PRKCI	2	longer clock period; seen with two independent siRNA pairs for the gene	phenotype reproduced by individual siRNAs	active
12	FHIT	1	higher rhythm amplitude; seen with one siRNA pair in duplicate wells	phenotype reproduced by individual siRNAs	active
13	FHIT	2	higher rhythm amplitude; seen with one siRNA pair in duplicate wells	phenotype reproduced by individual siRNAs	active
14	CKLFSF7	1	shorter clock period; seen with one siRNA pair in duplicate wells	phenotype reproduced by individual siRNAs	active
15	CDK6	1	longer clock period; seen with two independent siRNA pairs for the gene	phenotype reproduced by individual siRNAs	active
16	CDK6	2	longer clock period; seen with two independent siRNA pairs for the gene	phenotype reproduced by individual siRNAs	active
17	CNOT2	1	longer clock period; seen with two independent siRNA pairs for the gene	phenotype reproduced by individual siRNAs	active
18	CNOT2	2	longer clock period; seen with two independent siRNA pairs for the gene	phenotype reproduced by individual siRNAs	active
19	CKLF	1	shorter clock period; seen with one siRNA pair in duplicate wells	phenotype reproduced by individual siRNAs	active
20	CKLF	2	shorter clock period; seen with one siRNA pair in duplicate wells	phenotype reproduced by individual siRNAs	active
21	NYX	1	longer clock period; seen with two independent siRNA pairs for the gene	phenotype reproduced by individual siRNAs	active
22	NYX	2	longer clock period; seen with two independent siRNA pairs for the gene	phenotype reproduced by individual siRNAs	active
23	WIG1	1	longer clock period; seen with two independent siRNA pairs for the gene	phenotype reproduced by individual siRNAs	active
24	CCT5	1	shorter clock period; seen with two independent siRNA pairs for the gene	phenotype reproduced by individual siRNAs	active
25	CCT5	2	shorter clock period; seen with two independent siRNA pairs for the gene	phenotype reproduced by individual siRNAs	active
26	ASB5	1	longer clock period; seen with two independent siRNA pairs for the gene	phenotype reproduced by individual siRNAs	active
27	ASB5	2	longer clock period; seen with two independent siRNA pairs for the gene	phenotype reproduced by individual siRNAs	active
28	JUND	1	longer clock period; seen with two independent siRNA pairs for the gene	phenotype reproduced by individual siRNAs	active
29	JUND	2	longer clock period; seen with two independent siRNA pairs for the gene	phenotype reproduced by individual siRNAs	active
30	CMYA4	1	longer clock period; seen with two independent siRNA pairs for the gene	phenotype reproduced by individual siRNAs	active
31	CMYA4	2	longer clock period; seen with two independent siRNA pairs for the gene	phenotype reproduced by individual siRNAs	active
32	CARD11	1	shorter clock period; seen with one siRNA pair in duplicate wells	phenotype not reproduced by individual siRNAs	inconclusive
33	CARD11	2	shorter clock period; seen with one siRNA pair in duplicate wells	phenotype not reproduced by individual siRNAs	inconclusive
34	GPR40	1	shorter clock period; seen with one siRNA pair in duplicate wells	not retested with individual siRNAs	
35	GPR40	2	shorter clock period; seen with one siRNA pair in duplicate wells	not retested with individual siRNAs	
36	STX4A	1	higher rhythm amplitude; seen with one siRNA pair in duplicate wells	phenotype not reproduced by individual siRNAs	inconclusive
37	STX4A	2	higher rhythm amplitude; seen with one siRNA pair in duplicate wells	phenotype not reproduced by individual siRNAs	inconclusive
38	SCHIP1	1	shorter clock period; seen with two independent siRNA pairs for the gene	phenotype reproduced by individual siRNAs	active
39	SCHIP1	2	shorter clock period; seen with two independent siRNA pairs for the gene	phenotype reproduced by individual siRNAs	active
40	RNF103	1	higher rhythm amplitude; seen with one siRNA pair in duplicate wells	phenotype not reproduced by individual siRNAs	inconclusive
41	RNF103	2	higher rhythm amplitude; seen with one siRNA pair in duplicate wells	phenotype not reproduced by individual siRNAs	inconclusive
42	CARD9	1	shorter clock period; seen with one siRNA pair in duplicate wells	phenotype not reproduced by individual siRNAs	inconclusive
43	CARD9	2	shorter clock period; seen with one siRNA pair in duplicate wells	phenotype not reproduced by individual siRNAs	inconclusive
44	IRF4	1	higher rhythm amplitude; seen with one siRNA pair in duplicate wells	phenotype reproduced by individual siRNAs	active
45	IRF4	2	higher rhythm amplitude; seen with one siRNA pair in duplicate wells	phenotype reproduced by individual siRNAs	active
46	SCARA3	1	shorter clock period; seen with two independent siRNA pairs for the gene	phenotype reproduced by individual siRNAs	active
47	SCARA3	2	shorter clock period; seen with two independent siRNA pairs for the gene	phenotype reproduced by individual siRNAs	active
48	TD-60	1	shorter clock period; seen with one siRNA pair in duplicate wells	phenotype reproduced by individual siRNAs	active
49	TD-60	2	shorter clock period; seen with one siRNA pair in duplicate wells	phenotype reproduced by individual siRNAs	active
50	BSCL2	1	longer clock period; seen with two independent siRNA pairs for the gene	phenotype reproduced by individual siRNAs	active
51	BSCL2	2	longer clock period; seen with two independent siRNA pairs for the gene	phenotype reproduced by individual siRNAs	active

Not a retest: 13 of the entries above.
no.	Target gene	reagent no.	clock phenotype class	confirmed with single siRNAs	Outcome
5	TH	2	longer clock period; seen with two independent siRNA pairs for the gene	phenotype reproduced by individual siRNAs	active
6	IGSF4C	1	longer clock period; seen with two independent siRNA pairs for the gene	phenotype reproduced by individual siRNAs	active
7	IGSF4C	2	longer clock period; seen with two independent siRNA pairs for the gene	phenotype reproduced by individual siRNAs	active
8	CKAP1	1	shorter clock period; seen with one siRNA pair in duplicate wells	phenotype reproduced by individual siRNAs	active
9	CKAP1	2	shorter clock period; seen with one siRNA pair in duplicate wells	phenotype reproduced by individual siRNAs	active
10	PRKCI	1	longer clock period; seen with two independent siRNA pairs for the gene	phenotype reproduced by individual siRNAs	active
11	PRKCI	2	longer clock period; seen with two independent siRNA pairs for the gene	phenotype reproduced by individual siRNAs	active
12	FHIT	1	higher rhythm amplitude; seen with one siRNA pair in duplicate wells	phenotype reproduced by individual siRNAs	active
13	FHIT	2	higher rhythm amplitude; seen with one siRNA pair in duplicate wells	phenotype reproduced by individual siRNAs	active
14	CKLFSF7	1	shorter clock period; seen with one siRNA pair in duplicate wells	phenotype reproduced by individual siRNAs	active
15	CDK6	1	longer clock period; seen with two independent siRNA pairs for the gene	phenotype reproduced by individual siRNAs	active
16	CDK6	2	longer clock period; seen with two independent siRNA pairs for the gene	phenotype reproduced by individual siRNAs	active
17	CNOT2	1	longer clock period; seen with two independent siRNA pairs for the gene	phenotype reproduced by individual siRNAs	active

More results follow:
no.	Target gene	reagent no.	clock phenotype class	confirmed with single siRNAs	Outcome
52	FGF10	1	longer clock period; seen with two independent siRNA pairs for the gene	phenotype reproduced by individual siRNAs	active
53	FGF10	2	longer clock period; seen with two independent siRNA pairs for the gene	phenotype reproduced by individual siRNAs	active
54	ANTXR1	1	longer clock period; seen with two independent siRNA pairs for the gene	phenotype reproduced by individual siRNAs	active
55	ANTXR1	2	longer clock period; seen with two independent siRNA pairs for the gene	phenotype reproduced by individual siRNAs	active
56	FZD10	1	shorter clock period; seen with one siRNA pair in duplicate wells	phenotype reproduced by individual siRNAs	active
57	FZD10	2	shorter clock period; seen with one siRNA pair in duplicate wells	phenotype reproduced by individual siRNAs	active
58	CDK3	1	longer clock period; seen with two independent siRNA pairs for the gene	phenotype reproduced by individual siRNAs	active
59	CDK3	2	longer clock period; seen with two independent siRNA pairs for the gene	phenotype reproduced by individual siRNAs	active
60	POLR2B	1	longer clock period; seen with two independent siRNA pairs for the gene	phenotype reproduced by individual siRNAs	active
61	POLR2B	2	longer clock period; seen with two independent siRNA pairs for the gene	phenotype reproduced by individual siRNAs	active
62	SCAMP2	1	higher rhythm amplitude; seen with one siRNA pair in duplicate wells	phenotype reproduced by individual siRNAs	active
63	SCAMP2	2	higher rhythm amplitude; seen with one siRNA pair in duplicate wells	phenotype reproduced by individual siRNAs	active
64	RAB20	1	longer clock period; seen with two independent siRNA pairs for the gene	phenotype reproduced by individual siRNAs	active
65	RAB20	2	longer clock period; seen with two independent siRNA pairs for the gene	phenotype reproduced by individual siRNAs	active
66	P2RY10	1	longer clock period; seen with two independent siRNA pairs for the gene	phenotype reproduced by individual siRNAs	active
67	P2RY10	2	longer clock period; seen with two independent siRNA pairs for the gene	phenotype reproduced by individual siRNAs	active
68	FKSG2	1	longer clock period; seen with two independent siRNA pairs for the gene	phenotype reproduced by individual siRNAs	active
69	FKSG2	2	longer clock period; seen with two independent siRNA pairs for the gene	phenotype reproduced by individual siRNAs	active
70	HCFC1	1	longer clock period; seen with two independent siRNA pairs for the gene	phenotype reproduced by individual siRNAs	active
71	HCFC1	2	longer clock period; seen with two independent siRNA pairs for the gene	phenotype reproduced by individual siRNAs	active
72	SLC8A2	1	higher rhythm amplitude; seen with one siRNA pair in duplicate wells	phenotype reproduced by individual siRNAs	active
73	SLC8A2	2	higher rhythm amplitude; seen with one siRNA pair in duplicate wells	phenotype reproduced by individual siRNAs	active
74	BMP4	1	longer clock period; seen with two independent siRNA pairs for the gene	phenotype reproduced by individual siRNAs	active
75	BMP4	2	longer clock period; seen with two independent siRNA pairs for the gene	phenotype reproduced by individual siRNAs	active
76	MAGEA12	1	shorter clock period; seen with one siRNA pair in duplicate wells	phenotype reproduced by individual siRNAs	active
77	MAGEA12	2	shorter clock period; seen with one siRNA pair in duplicate wells	phenotype reproduced by individual siRNAs	active
78	MT2A	1	shorter clock period; seen with one siRNA pair in duplicate wells	phenotype reproduced by individual siRNAs	active
79	MT2A	2	shorter clock period; seen with one siRNA pair in duplicate wells	phenotype reproduced by individual siRNAs	active
80	KIAA1414	1	shorter clock period; seen with two independent siRNA pairs for the gene	phenotype reproduced by individual siRNAs	active
81	KIAA1414	2	shorter clock period; seen with two independent siRNA pairs for the gene	phenotype reproduced by individual siRNAs	active
82	BLNK	1	higher rhythm amplitude; seen with one siRNA pair in duplicate wells	phenotype reproduced by individual siRNAs	active
83	BLNK	2	higher rhythm amplitude; seen with one siRNA pair in duplicate wells	phenotype reproduced by individual siRNAs	active
84	KIAA0690	1	longer clock period; seen with two independent siRNA pairs for the gene	phenotype reproduced by individual siRNAs	active
85	KIAA0690	2	longer clock period; seen with two independent siRNA pairs for the gene	phenotype reproduced by individual siRNAs	active
